Assay results published in US20090202571A1, “Bioreductively-activated prodrugs” (HOPNIC LABORATORY CO., LTD., priority 2004, published 2009).

Assay: Radiolysis: release of drugs from prodrugs after reduction
Details: isopropanol/water 50:50, nitrous oxide saturated, 60Co irradiation 3.9 Gy min^−1; released drug by HPLC

Compound | G (radiation chemical yield, G-value) of drug released
9-[(4,6-O-Ethylidene-β-D-glucopyranosyl)oxy]-5,8,8a,9-tetrahydro-5-(4-(1-(5-nitrothien-2-yl)ethoxy)-3,5-dimethoxyphenyl)furo[3′,4′:6,7]naphtha[2,3-d]-1,3-dioxol-6(5aH)-one [Example 1] | 0.32 µmol/J
COc1cc([C@@H]2c3cc4c(cc3[C@@H](OC3OC5COC(c6cccs6)OC5C(O)C3O)[C@H]3COC(=O)[C@H]23)OCO4)cc(OC)c1OCc1ccc([N+](=O)[O-])s1 (stereo partly drawn) [Example 3, 9-[(4,6-O-(Thien-2-ylmethylidene-β-D-glucopyranosyl)oxy]-5,8,8a,9-tetrahydro-5-(4-(5-nitrothien-2-yl)methoxy)-3,5-dimethoxyphenyl)furo[3′,4′:6,7]naphtha[2,3-d]-1,3-dioxol-6(5aH)-one] | 0.57 µmol/J
